In US20220144911A1:
These are yes or no findings as the source states them, for the method shown. Some binding calls cover weakened binding; strength is not graded here. Where a sequence is shown, tags or fusion partners need not be part of it.

The chains behind the UniProt entries cited, without tags or fusion partners. Residues count along the entry.
UniProt P51496, residues 19-178: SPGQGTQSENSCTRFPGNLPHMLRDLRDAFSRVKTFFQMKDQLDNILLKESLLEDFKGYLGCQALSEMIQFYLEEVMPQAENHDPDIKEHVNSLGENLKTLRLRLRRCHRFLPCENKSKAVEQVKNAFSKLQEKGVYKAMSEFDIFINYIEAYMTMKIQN

Columns and labels:
[1] = molecular target: cellular RhIL10 (rhesus macaque) (UniProt P51496); assay: SPR sensorgrams
[2] = molecular target: cellular RhIL10 (rhesus macaque) (UniProt P51496); assay: SPR

B1: RhIL10R1-FC-SLS (Fc fusion)
chain: AHGTELPSPPSVWFEAEFFHHILHWTPIPNQSESTCYEVALLRYGTGRWNSISNCSQALSYDLTAVTLDLYRSNGYWARVRAVDGSRHSNWTVTNTRFSLDEVTLTVGSVKLEIHNGFILGKIQPPRPKMAPANDTYESIFRHFREYEIAIRKVPGNFTFTHKKVKHENFSLLTSGEVGEFCVQVKPSVTSRTNKGMWSKEECVSLTRQYFTVTNVGSGGGGPSVFLFPPKPKDTLMISRTPEVTCVVVDVSQEDPDVKFNWYVNGAEVHHAQTKPRETQYNSTYRVVSVLTVTHQDWLNGKEYTCKVSNKALPAPIQKTISKDKGQPREPQVYTLPPSREELTKNQVSLTCLVKGFYPSDIVVEWESSGQPENTYKTTPPVLDSDGSYFLYSKLTVDKSRWQQGNVFSCSVMHEALHNHYTQKSLSLSGGCGTPGK
binding [1]: binds | binding [2]: binds
